Source: PMC8698616
Results are given in words; binding and its absence hold for the method and conditions named. Binding seen in cells or lysates may run through a third protein. Some binding calls cover weakened binding; strength is not graded here. One block for each binder: values may come before it.

Key:
[1] = target: T1, LEA29 (Arabidopsis thaliana (Col-0)), Q9LW12; assay: split reporter; 2in1 ratiometric BiFC (rBiFC, vector pBiFCt-2in1-CC) in N. benthamiana leaves, 4 d after Agrobacterium infiltration with p19; confocal microscopy; relative YFP/RFP fluorescence ratio with cut-off above 80% (n = 15-25); LEA gene at the attR1-R4 site alone as negative control; conditions: remark: other sources report otherwise
T1 chain: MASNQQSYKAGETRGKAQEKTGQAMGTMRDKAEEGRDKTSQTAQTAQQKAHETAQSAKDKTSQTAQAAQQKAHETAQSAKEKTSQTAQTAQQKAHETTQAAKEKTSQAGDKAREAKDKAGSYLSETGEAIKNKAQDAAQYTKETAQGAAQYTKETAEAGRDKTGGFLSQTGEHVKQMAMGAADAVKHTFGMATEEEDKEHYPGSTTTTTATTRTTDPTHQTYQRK

[2] = target: T2, LEA7 (Arabidopsis thaliana (Col-0)) (UniProt Q96270); assay: as above
T2 sequence: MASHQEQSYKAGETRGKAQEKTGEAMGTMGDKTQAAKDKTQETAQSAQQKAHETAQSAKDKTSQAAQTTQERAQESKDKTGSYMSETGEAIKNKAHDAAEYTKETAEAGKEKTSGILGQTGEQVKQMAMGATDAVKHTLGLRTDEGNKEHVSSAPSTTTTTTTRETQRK

- binding [1]: binds
B1: LEA29, Q9LW12 1-225 (protein)
chain: T1 chain

- binding [2]: binds
B2: LEA29 (protein, UniProt Q9LW12 1-225)
chain: T1 chain
